Reference: PubChem BioAssay AID1259415 (National Center for Advancing Translational Sciences (NCATS), 2018)
The campaign covered roughly 410,000 compounds. About 18,000 (4.4%) were called active. This list was built around the results that the source calls inconclusive (neither active nor inactive); the mix of calls is not that of the screen. Rule as the data show it: active = activity change below about -60%; inconclusive = no clear call, values can overlap the other calls; inactive = above about -39%.

Assay: qHTS Assay for inhibitors of the human cytomegalovirus (HCMV)
Details: HFF cells, HCMV-luciferase reporter, 72 h; at 57.5 µM; active compounds read low
Procedure, shortened: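 After 16 h attachment at 37C, HFF cells received test compound and HCMV-luciferase (1 PFU/cell); reporter luminescence read 72 h later, data normalized against buffer-only and known inhibitor Salinomycin.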
% is scaled to controls: 0 for no effect and ±100 for the full control effect.

Compound	activity change, negative = inhibition
Cc1cc(C)cc(NC2=NC3(CCCCC3)N=C(N)N2)c1	inconclusive: -45.2%
O=C(CSc1ncn(-c2ccccc2)n1)Nc1nncs1	inconclusive: -40.1%
COc1cc(OC)c(NC2=CC(=O)C(=O)c3ccccc32)cc1Cl	active: -81.9%
Cc1ccc(N(C)/N=C/c2ccc(Cl)cc2Cl)nn1	active: -67.5%
Cc1ccc2c(CNCc3cccs3)c(C(=O)O)n(Cc3ccc(F)cc3)c2c1	active: -102%
COc1ccc(C(=O)CN2CCOCC2)cc1F	inactive: 6.93%
Cc1cc(=O)[nH]c2nnc(SCC(=O)Nc3cc(C(F)(F)F)ccc3Cl)n12	inconclusive: -41.9%
CCN(CC)c1ccc(/C=C/[N+](=O)[O-])cc1	active: -114%
Cc1ccc(NC(=O)COc2ccc3oc4c(c3c2)CCCC4)c(C)c1	inactive: -18.9%
CC(C)CN1CCN(Cc2c[nH]c3ccccc23)CC1CCO (configuration not stated)	inactive: 28.1%
Cc1sc2nc(CN(C(=O)NCc3ccccc3)C3CCCC3)[nH]c(=O)c2c1C	inconclusive: -44.1%
Cc1ccc(CCNC(=O)Cn2nc(C)c3c(C)n(-c4ccc(C)cc4)nc3c2=O)cc1	inactive: 0%
CCCc1ccc(Oc2c(-c3ccc(O)c(C)c3O)n[nH]c2C)cc1	inactive: 1.08%
O=c1c2ccccc2nc(/C=C/c2ccccc2)n1-c1ccc(O)cc1	active: -88.1%
N#CCCN(Cc1cccnc1)CN1C(=O)c2ccccc2C1=O	inconclusive: -44.9%
COc1ccc(S(=O)(=O)N2CCOCC2)cc1NC(=O)CCCOc1ccccc1	inactive: 7.88%
Cc1cc(F)ccc1NC(=O)C1CCCN(c2nnc(-n3c(C)ccc3C)s2)C1 (configuration not stated)	inconclusive: -44.3%
O=C(COc1ccc(Br)cc1)N1CCc2ccccc2C1	inconclusive: -43.9%
Cc1oc2c(c1C(=O)c1ccc(Cl)cc1)C(=O)C(=O)c1ccccc1-2	inconclusive: -50.1%

Compound	activity change, negative = inhibition
CC1CCc2sc(C(=O)N/N=C/c3ccc(O)cc3)cc2C1 (configuration not stated)	active: -63.9%
CCOc1ccc(NC(=O)CN(C)C(=O)c2ccc(OCC3CCCO3)cc2)cc1OCC (configuration not stated)	inconclusive: -48.7%
CCOc1cc(C)c(S(=O)(=O)NCCCn2ccnc2)cc1C	inconclusive: -53.4%
O=C(Nc1cccc(O)c1)c1ccc2c(c1)C(=O)N(Cc1ccco1)C2=O	inactive: 4.22%
O=C(Nc1cccc(C(F)(F)F)c1)NC1CCCCC1	inactive: -28.6%
Cc1ccc(SCC(=O)Nc2ccccc2C(=O)N2CCOCC2)cc1	active: -70.9%
CN(Cc1c[nH]c2ccccc12)C1CCCCC1	active: -94.3%
Cc1ccc(CCNC(=O)c2cc(-c3ccncc3)nc3ccc(S(=O)(=O)N4CCOCC4)cc23)cc1	inconclusive: -57%
O=C(O)CCCN1C(=O)/C(=C/c2ccncc2)SC1=S	active: -61.4%
CC(=O)c1cccc(NC(=O)c2cnn(-c3cccc(C)c3)c2-n2cccc2)c1	inconclusive: 0%
Cc1ccc(-c2noc(C3CCCN(S(=O)(=O)c4ccc5ccccc5c4)C3)n2)o1 (configuration not stated)	inconclusive: -53.7%
O=C(NCCN1CCN(c2ccc([N+](=O)[O-])cc2)CC1)NCc1ccccc1	active: -93.9%
CCC(=O)N1CCc2cc(Br)cc(S(=O)(=O)NCCc3ccccc3Cl)c21	inactive: -39.9%
CC(C)N(CCNC(=O)c1ccc(CS(=O)(=O)c2c(Cl)cccc2Cl)o1)Cc1ccccc1	inconclusive: -42.8%
O=c1[nH]c(C2CCN(S(=O)(=O)c3ccccc3F)CC2)nc2c1nnn2Cc1ccc(F)cc1	inactive: -9.84%
COc1ccc(C2C(C(C)=O)=C(O)C(=O)N2Cc2ccccc2)c(OC)c1 (configuration not stated)	inconclusive: -45.5%
O=C(Cn1c(-c2cccs2)cc2cc(Cl)ccc21)NCc1ccccc1	inactive: -15.9%
CCC(OC(=O)C1=Cc2ccccc2OC1)C(=O)NC1CCCC1 (configuration not stated)	inconclusive: -40%
CSc1ncccc1C(=O)Nc1nc(C(C)(C)C)cs1	inactive: 15.2%

Fetched by compound from the entries so far (five):
Compound	activity change, negative = inhibition
CC(C)CN1CCN(Cc2c[nH]c3ccccc23)CC1CCO (configuration not stated)	inactive: 28.1%
O=C(O)CCCN1C(=O)/C(=C/c2ccncc2)SC1=S	active: -61.4%
O=C(Cn1c(-c2cccs2)cc2cc(Cl)ccc21)NCc1ccccc1	inactive: -15.9%
CC(C)N(CCNC(=O)c1ccc(CS(=O)(=O)c2c(Cl)cccc2Cl)o1)Cc1ccccc1	inconclusive: -42.8%
CSc1ncccc1C(=O)Nc1nc(C(C)(C)C)cs1	inactive: 15.2%

Following part.

Compound	activity change, negative = inhibition
Cc1cccc(NC(=O)c2sc3nc(N4CCOCC4)c4c(c3c2N)CCCC4)c1	inconclusive: -41.8%
Clc1ccc(-c2cn(-c3ccc(Cl)cc3)c3[n+]2CCCCC3)cc1	inconclusive: -40.4%
COc1ccc(-c2nc(N)ncc2-c2ccccc2)c(O)c1	inconclusive: -54%
CC12CCC3C(CCC4C/C(=N/O)CCC43C)C1CCC2O (configuration not stated)	inconclusive: -40.7%
CCN(CC(=O)Nc1ccccc1C(F)(F)F)C(=O)c1cccc(N2C(=O)CCC2=O)c1	inconclusive: -40.8%
CC(C)c1ccccc1OCCNC(=O)c1cncc(Br)c1	inconclusive: -49.5%
N#Cc1cccc(NC(=O)c2cc(C3CCCCN3C(=O)C3CC3)on2)c1 (configuration not stated)	active: -62.9%
Cc1cccc(NC(=S)NCCN(C2CCCCC2)C2CCCC2)c1	inconclusive: -46%
CN(C)c1nc(=NCc2cccs2)ss1	inconclusive: -57.3%
COc1ccccc1OCC(=O)N(Cc1ccc(N(C)C)cc1)CC1CCCO1 (configuration not stated)	inactive: -2.3%
Cc1ccc(C2C(C(=O)c3cc4ccccc4o3)=C(O)C(=O)N2CCN(C)C)o1 (configuration not stated)	inactive: -33.7%
Cc1sc(NC(=O)CN(C(=O)c2ccccc2F)C2CCCC2)c(C(N)=O)c1C	inconclusive: -53.2%
COc1ccc(Nc2ccc3cc(S(=O)(=O)N4CCCC4)ccc3n2)cc1Cl	inactive: -33.9%
O=C1NC(=S)N(c2ccccc2)C(=O)/C1=C/c1ccco1	inactive: 38.6%
CCc1ccc(CN(C)C(=O)c2cc(COc3ccc(OC)cc3Cl)on2)nc1	inactive: 72.2%
COC(=O)Cc1c(C)c2ccc(O)c(CN3CCCC(C)C3)c2oc1=O (configuration not stated)	inconclusive: -43.5%
CCOC(=O)c1cc(S(=O)(=O)Nc2cccc(OC)c2)cn1C	inactive: -33.4%
Cc1ccc(NC(=O)CC2C(=O)N(Cc3ccccc3)C(=S)N2NC(=O)c2cccc(F)c2)c(C)c1 (configuration not stated)	active: -70.8%
CN(C(=O)CCN1C(=O)/C(=C/c2ccccc2F)SC1=S)C1CCS(=O)(=O)C1 (configuration not stated)	active: -63.4%
